Test results: paper PMC8201403
Results are given in words; binding and its absence hold for the method and conditions named. In cells and extracts the contact can be indirect. A yes stands for co-enrichment or nearness to the bait. Other partners may have been found.

By UniProt entry, the sequences of proteins in these tests, tags left out. Residues count along the entry.
UniProt P02768, residues 25-609: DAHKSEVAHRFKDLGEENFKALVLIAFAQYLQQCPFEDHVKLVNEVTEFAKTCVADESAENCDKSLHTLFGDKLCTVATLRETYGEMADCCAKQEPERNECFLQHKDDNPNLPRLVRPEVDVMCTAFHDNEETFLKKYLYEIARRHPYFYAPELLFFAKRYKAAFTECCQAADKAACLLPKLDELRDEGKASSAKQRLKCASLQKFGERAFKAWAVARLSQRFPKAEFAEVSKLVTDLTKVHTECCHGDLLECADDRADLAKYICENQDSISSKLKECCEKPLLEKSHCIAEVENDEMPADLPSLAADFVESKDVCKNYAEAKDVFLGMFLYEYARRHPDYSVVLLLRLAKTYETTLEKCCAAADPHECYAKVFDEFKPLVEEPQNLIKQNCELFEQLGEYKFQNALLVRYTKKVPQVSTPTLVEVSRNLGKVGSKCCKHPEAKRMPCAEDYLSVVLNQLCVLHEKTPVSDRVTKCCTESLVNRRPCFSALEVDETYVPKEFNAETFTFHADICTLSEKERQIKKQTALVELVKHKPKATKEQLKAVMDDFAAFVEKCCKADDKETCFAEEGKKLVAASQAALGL
UniProt P02787, residues 20-698: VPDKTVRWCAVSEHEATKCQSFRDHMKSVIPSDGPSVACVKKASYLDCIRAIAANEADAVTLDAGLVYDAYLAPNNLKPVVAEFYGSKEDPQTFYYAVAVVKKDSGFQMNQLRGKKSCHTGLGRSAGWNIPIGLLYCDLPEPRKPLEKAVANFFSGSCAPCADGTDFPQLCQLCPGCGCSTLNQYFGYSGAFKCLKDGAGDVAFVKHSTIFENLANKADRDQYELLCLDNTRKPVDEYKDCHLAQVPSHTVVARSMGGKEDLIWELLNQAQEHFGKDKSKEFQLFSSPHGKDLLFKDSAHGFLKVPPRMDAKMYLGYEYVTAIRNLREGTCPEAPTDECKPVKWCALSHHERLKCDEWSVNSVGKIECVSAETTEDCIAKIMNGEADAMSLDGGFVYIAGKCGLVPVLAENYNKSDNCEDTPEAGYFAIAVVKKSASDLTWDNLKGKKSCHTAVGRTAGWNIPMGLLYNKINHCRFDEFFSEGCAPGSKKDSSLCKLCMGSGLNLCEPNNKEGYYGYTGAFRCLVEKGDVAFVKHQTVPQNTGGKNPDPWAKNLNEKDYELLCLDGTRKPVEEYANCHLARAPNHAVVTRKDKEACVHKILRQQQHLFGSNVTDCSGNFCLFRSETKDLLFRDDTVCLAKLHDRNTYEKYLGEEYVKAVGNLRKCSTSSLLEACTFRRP
UniProt P0DMV8: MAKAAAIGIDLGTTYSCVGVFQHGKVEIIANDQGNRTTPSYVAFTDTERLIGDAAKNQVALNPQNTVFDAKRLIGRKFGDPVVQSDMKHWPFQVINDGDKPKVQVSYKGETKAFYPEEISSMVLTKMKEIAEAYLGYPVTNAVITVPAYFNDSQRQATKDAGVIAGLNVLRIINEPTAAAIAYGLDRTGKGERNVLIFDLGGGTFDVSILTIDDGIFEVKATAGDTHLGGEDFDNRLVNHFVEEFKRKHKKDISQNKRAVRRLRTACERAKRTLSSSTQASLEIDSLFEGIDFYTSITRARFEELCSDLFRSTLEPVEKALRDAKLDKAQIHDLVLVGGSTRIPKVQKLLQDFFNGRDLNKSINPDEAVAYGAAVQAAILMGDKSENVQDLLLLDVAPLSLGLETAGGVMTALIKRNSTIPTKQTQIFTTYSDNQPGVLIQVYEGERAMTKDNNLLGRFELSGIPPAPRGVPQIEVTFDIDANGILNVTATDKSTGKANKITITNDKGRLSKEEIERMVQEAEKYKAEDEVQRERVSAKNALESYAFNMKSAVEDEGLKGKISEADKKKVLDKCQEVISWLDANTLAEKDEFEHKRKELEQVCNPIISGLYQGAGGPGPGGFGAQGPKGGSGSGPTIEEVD
UniProt Q7Z406: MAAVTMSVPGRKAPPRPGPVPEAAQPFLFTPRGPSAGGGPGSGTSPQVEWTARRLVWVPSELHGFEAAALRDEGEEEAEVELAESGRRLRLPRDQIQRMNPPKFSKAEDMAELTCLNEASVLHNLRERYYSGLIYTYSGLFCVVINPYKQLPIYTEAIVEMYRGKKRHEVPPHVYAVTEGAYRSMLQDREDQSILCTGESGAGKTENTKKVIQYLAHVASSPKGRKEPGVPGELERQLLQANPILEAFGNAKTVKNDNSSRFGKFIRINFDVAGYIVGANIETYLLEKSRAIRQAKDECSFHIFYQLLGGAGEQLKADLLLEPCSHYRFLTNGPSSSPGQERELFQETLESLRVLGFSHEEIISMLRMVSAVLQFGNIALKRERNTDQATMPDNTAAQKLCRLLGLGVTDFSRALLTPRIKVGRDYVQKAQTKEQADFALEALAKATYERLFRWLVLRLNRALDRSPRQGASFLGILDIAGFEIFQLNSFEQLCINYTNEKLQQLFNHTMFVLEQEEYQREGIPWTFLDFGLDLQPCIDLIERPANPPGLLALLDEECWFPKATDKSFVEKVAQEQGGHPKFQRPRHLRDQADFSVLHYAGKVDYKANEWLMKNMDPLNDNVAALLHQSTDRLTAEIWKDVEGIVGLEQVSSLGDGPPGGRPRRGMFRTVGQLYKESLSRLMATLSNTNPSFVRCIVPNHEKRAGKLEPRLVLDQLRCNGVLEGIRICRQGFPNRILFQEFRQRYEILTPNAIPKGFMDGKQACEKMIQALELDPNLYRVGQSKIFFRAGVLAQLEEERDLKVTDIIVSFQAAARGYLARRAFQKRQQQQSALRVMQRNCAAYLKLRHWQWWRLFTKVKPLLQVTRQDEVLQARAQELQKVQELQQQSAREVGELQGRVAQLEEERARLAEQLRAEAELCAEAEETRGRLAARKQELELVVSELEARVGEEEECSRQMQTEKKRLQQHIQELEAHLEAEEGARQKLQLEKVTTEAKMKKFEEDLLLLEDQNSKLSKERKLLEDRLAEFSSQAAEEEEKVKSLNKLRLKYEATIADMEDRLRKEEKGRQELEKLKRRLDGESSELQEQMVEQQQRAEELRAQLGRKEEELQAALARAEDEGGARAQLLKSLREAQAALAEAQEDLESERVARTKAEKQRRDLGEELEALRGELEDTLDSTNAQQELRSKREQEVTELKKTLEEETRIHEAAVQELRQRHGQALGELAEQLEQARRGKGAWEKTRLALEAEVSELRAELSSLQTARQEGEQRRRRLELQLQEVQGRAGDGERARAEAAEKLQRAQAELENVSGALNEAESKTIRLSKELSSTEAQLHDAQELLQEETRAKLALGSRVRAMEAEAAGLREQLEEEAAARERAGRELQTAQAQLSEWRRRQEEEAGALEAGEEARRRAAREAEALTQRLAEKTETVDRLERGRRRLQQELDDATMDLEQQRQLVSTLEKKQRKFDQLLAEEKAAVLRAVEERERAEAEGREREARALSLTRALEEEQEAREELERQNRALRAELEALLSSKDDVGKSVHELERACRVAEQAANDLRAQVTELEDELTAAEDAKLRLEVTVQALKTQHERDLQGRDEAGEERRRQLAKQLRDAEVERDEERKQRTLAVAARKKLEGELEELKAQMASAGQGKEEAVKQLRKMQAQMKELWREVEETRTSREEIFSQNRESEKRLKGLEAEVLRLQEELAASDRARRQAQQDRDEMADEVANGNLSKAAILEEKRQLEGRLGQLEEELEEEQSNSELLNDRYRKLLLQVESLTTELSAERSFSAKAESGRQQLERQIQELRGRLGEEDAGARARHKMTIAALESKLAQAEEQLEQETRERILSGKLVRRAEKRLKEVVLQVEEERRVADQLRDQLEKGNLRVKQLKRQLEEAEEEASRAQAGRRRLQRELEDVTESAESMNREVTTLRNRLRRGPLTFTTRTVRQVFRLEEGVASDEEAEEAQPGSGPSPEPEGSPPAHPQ
UniProt P0CG38: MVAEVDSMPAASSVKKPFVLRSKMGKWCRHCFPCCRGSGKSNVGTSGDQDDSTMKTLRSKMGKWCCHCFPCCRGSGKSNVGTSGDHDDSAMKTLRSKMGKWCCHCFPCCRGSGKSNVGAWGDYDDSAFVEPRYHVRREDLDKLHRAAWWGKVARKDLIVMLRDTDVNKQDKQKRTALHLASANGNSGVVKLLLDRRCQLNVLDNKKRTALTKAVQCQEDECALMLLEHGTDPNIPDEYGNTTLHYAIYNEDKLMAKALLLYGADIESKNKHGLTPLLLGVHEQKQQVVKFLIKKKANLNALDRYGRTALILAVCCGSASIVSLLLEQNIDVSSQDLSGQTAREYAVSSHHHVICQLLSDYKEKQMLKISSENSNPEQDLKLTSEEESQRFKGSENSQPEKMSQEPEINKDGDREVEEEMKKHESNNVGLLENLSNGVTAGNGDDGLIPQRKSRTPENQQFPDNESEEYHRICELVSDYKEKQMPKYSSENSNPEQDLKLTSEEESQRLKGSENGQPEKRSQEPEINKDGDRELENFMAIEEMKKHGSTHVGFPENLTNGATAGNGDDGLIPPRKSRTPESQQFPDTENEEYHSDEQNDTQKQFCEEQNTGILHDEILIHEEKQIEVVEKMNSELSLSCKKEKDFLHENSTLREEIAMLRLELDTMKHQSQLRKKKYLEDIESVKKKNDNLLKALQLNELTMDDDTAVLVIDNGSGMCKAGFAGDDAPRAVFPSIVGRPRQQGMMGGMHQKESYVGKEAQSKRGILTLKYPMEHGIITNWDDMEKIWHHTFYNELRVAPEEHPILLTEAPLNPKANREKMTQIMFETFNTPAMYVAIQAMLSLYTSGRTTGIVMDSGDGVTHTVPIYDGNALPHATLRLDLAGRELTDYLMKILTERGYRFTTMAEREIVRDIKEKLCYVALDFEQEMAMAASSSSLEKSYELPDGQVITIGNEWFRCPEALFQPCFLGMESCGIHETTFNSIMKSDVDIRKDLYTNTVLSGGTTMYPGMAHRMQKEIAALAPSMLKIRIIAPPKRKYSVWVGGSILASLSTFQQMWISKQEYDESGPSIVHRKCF
UniProt P0CG39: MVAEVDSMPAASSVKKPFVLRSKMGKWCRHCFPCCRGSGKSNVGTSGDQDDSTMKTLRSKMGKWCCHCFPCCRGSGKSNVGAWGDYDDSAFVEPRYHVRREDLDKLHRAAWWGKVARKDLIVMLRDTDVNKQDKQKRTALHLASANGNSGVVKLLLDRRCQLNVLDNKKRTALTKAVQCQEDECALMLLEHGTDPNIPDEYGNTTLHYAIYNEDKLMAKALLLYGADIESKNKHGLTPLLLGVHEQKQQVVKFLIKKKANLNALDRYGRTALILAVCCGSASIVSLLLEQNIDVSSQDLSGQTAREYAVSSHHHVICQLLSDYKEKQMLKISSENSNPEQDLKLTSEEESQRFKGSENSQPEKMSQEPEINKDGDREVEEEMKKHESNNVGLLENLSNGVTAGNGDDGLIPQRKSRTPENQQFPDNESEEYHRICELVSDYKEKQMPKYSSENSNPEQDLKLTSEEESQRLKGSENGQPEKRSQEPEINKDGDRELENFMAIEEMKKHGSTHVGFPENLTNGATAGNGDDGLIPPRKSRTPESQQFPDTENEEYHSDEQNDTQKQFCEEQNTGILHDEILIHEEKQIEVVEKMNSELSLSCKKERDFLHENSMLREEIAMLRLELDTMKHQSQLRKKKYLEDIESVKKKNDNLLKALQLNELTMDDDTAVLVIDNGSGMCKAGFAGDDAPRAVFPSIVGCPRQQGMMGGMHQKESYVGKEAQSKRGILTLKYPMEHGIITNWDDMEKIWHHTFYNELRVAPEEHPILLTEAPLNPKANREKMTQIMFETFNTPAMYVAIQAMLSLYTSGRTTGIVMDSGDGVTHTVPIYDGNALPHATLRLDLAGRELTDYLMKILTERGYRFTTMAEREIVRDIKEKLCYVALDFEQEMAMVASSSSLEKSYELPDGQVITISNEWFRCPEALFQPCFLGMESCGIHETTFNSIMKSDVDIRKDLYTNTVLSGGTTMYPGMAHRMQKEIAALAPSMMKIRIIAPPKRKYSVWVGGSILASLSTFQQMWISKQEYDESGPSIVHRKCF
UniProt P68871: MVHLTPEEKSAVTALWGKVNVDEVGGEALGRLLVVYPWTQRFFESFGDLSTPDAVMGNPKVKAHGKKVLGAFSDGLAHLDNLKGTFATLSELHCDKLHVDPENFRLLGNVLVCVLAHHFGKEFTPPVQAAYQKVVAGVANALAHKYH

Tests used:
Assay in all cases: affinity purification with mass spectrometry; endogenous LXN, RPL29, FAU, AHSG, ALB and TF each immuno-precipitated with its antibody; gel bands digested with trypsin, Nano-LC ESI-QTOF-MS; two biological replicates; candidates narrowed with STRING
[1] = target: T1, Alpha 2-HS glycoprotein (AHSG), endogenous (human (endogenous in Bel-7402)) (UniProt P02765)
T1 sequence: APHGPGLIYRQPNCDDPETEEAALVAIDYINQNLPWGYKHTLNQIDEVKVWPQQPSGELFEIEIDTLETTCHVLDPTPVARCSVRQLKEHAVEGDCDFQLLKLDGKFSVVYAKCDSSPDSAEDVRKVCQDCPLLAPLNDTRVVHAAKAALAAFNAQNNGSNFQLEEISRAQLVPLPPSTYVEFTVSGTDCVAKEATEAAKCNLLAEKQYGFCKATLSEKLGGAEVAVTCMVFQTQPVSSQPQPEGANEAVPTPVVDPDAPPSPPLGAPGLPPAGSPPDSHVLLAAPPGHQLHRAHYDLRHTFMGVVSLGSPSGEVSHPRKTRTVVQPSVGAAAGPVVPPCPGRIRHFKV

[2] = target: Albumin (ALB), endogenous (human (endogenous in Bel-7402)) (UniProt P02768)
[3] = target: Serotransferrin (TF), endogenous (human (endogenous in Bel-7402)) (UniProt P02787)
[4] = target: T2, Latexin (LXN), endogenous (human (endogenous in Bel-7402)) (UniProt Q9BS40)
T2 sequence: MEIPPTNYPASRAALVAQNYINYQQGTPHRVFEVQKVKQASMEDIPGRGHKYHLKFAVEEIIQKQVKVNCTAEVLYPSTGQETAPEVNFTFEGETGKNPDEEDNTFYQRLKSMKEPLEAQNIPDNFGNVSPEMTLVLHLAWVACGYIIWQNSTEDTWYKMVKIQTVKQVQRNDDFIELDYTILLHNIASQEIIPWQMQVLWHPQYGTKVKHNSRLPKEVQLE

Measured: binding

heat shock protein family A member 1A (HSPA1A), endogenous (from UniProt P0DMV8 1-641)
binds: all assays above

myosin heavy chain 14 (MYH14), endogenous (from UniProt Q7Z406 1-1995)
binds: all assays above

heat shock protein family A member 8 (HSPA8), endogenous (from UniProt P11142 1-646)
binds: all assays above

POTEI, endogenous (from UniProt P0CG38 1-1075)
binds: all assays above

heat shock protein family A member 9 (HSPA9), endogenous (from UniProt P38646 47-679)
binds: all assays above

POTE Ankyrin domain family member E (POTEE), endogenous (from UniProt Q6S8J3 1-1075)
binds: all assays above

POTEJ, endogenous (from UniProt P0CG39 1-1038)
binds: all assays above

HBB, endogenous (from UniProt P68871 1-147)
binds: [1] | [3]
